Values from PubChem BioAssay AID1224830 (NIAID, 2016).
Here is an unselected part of about 18,000 reagents tested. Of all reagents, about 2,900 (16%) got an active call. 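Calls are made per well; low scores hint the gene aids the LPS response, high scores that it dampens it.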 A number with no mark means an inactive call. Repeated entries: four replicate wells of each siRNA pool.

Aim: 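Genes whose knock-down alters the TNF-alpha reporter response to LPS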 (primary screen)
Cell system: human THP-1 monocytic leukaemia cells, TNF dual-luciferase reporter clone, PMA-differentiated to macrophage-like cells
Reagent: siRNA pool against human genes, 50 nM
Timing: LPS for 4 h, given about 3 days after siRNA transfection
Challenge: bacterial LPS (TLR4 ligand), 10 ng/ml
Read-out: 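TNF firefly reporter luminescence divided by renilla, normalised to the plate median, then turned into a robust z-score for each replicate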
Reading the numbers: TNF reporter robust z-score: higher = stronger TNF reporter response to LPS
Hit rule: 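Each well counts as active if its z-score is over 2.8 or under -1.5; controls are left without a call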

gene,TNF reporter robust z-score
DKK3,-0.57
DKK3,2.33
DKK3,-0.49
DKK3,-0.73
PARVG,-0.18
PARVG,0.36
PARVG,0.8
PARVG,0.52
DAPK3,0.67
DAPK3,0.9
DAPK3,1.1
DAPK3,0.19
PIGL,-0.98
PIGL,-0.29
PIGL,-0.48
PIGL,0.04
NXPE4,0.68
NXPE4,1.69
NXPE4,-0.63
NXPE4,0.77
CSTF2T,0.34
CSTF2T,1.27
CSTF2T,-0.01
CSTF2T,0.36
SPATA17,1.81
SPATA17,2.5
SPATA17,1.26
SPATA17,1.45
WDR83,0.32
WDR83,3.54 (active)
WDR83,-0.01
WDR83,3.87 (active)
CACNB3,-0.42
CACNB3,0.06
CACNB3,0.22
CACNB3,0.69
ELP1,-1.94 (active)
ELP1,-1.93 (active)
ELP1,-1.84 (active)
ELP1,-1.81 (active)
CYBA,-0.23
CYBA,0.6
CYBA,1.82
CYBA,2.91 (active)
GNA14,-0.7
GNA14,-0.29
GNA14,0.2
GNA14,-0.35

Part of the list above in another layout.
gene	TNF reporter robust z-score
WDR83	3.54 (active)
WDR83	-0.01
